From PMC10163288
Some of the results follow.

B1: il10ra_site1_normal_mot_HHH_b2_08144_af2_000000046_0001_38_52_H_._HHH_b2_00248_af2_0001_0000300023_0000001_0_af2pred_dldesign_0_af2pred (protein)
chain: SSSSSSNPTEKTYELIRKASLLEDKEEREKLLEEAEKLAKELNDKTALYTIDYLKSLLSSSSSSS
B2: il10ra_site1_normal_mot_HHH_b1_02062_000000185_0001_1_20_H_._HHH_b1_06879_af2_0001_0000300019_0000002_0 (protein)
chain: SSSSDEEFRRVYELSREASELDSDGDEEEAEEVLREAQELAEELNNLLLRFQIEFLLRLLSSSSS
B3: il10ra_site1_sap_13_mot_HHH_b1_05860_000000142_0001_1_19_H_._HHH_b1_05334_0001_0000200015_0000001_0_0001_af2pred_0001 (protein)
chain: SSSSSDEELVARAILRLLKSAVKAGDEERARRLVRMALEIVEKLGDEEILEALEKILEELRSSSS
B4: il10ra_site1_normal_mot_812af5c65f29141b25d3ed263bec1fb2_0001_1_000000083_0001_36_50_H_._HHH_b2_06063_0001_0000200012_0000002_0_af2pred_0001 (protein)
chain: SSSSSDEELREEVEELLEKAKEIDDPREAAEVLLRAAELAWELGDPELMELVIEVARKLKSSSSS
B5: il10ra_site1_sap_28_mot_HHH_b1_01779_000000096_0001_43_57_H_._HHH_b2_04259_0002_0000600031_0000001_0_0001 (protein)
chain: SSSSSNTERAVRRLFKAIEEIDDERYLRLALKFIKALAEAANDEEAQKLVEELEELLRERSSSSS
B6: il10ra_site1_normal_mot_HHH_b1_00682_000000211_0001_1_20_H_._HHH_b2_01840_0001_0000100011_0000002_0_af2pred_0001 (protein)
chain: SSSSDVEERVEELLEQARELREKGNPEEAFKALKEALELASEVNDPELQRLVLEVAQELFSSSSS
B7: il10ra_site1_normal_mot_HHH_b1_03333_000000091_0001_1_17_H_._HHH_b2_00363_0001_0000100021_0000001_0 (protein)
chain: SSSSDLYEEVKEVIERAVELLREGNPEEAHRLLEELEEKLEELGNFAALFSVRHLARVVGSSSSS
B8: il10ra_site1_sap_16_mot_HHH_b1_04771_000000013_0001_40_56_H_._HHH_b2_05569_0001_0000300029_0000001_0_0001 (protein)
chain: SSSSDEEEEELRELVEEVEELIKRNDEERALRVAMKALQLAFQASDPEVLKALWELNKKISSSSS
B9: il10ra_site1_sap_17_mot_HHH_b2_07579_000000275_0001_1_19_H_._HHH_b1_07926_0001_0000100009_0000002_0_0001 (protein)
chain: SSSSDEEEVKELLEEAEKAREEGDPELVLRLLMEALRIAIQANNPELLRAIWRVLHELASSSSSS
B10: il10ra_site1_normal_mot_HHH_b1_06994_000000193_0001_40_55_H_._HHH_b2_04520_0001_0000200019_0000001_0 (protein)
chain: SSSSTLEELLRALLRLIEQAIKYGDEKSARRLLEAARRVAEILGDEEVEERLEELKKELESSSSS
B11: il10ra_site1_normal_mot_8756ee2cf497b5429c717dfc0c0bcfd6_0001_000000186_0001_1_13_H_._HHH_b1_04220_af2_0001_0000100005_0000001_1_af2pred_0001 (protein)
chain: SSSSSERAREIFELLRRIAELLHEGDDEEARELLEEARRLAEENNNAAAEAVIEFLEKRVESSSS
B12: il10ra_site1_normal_mot_HHH_b2_06090_af2_000000001_0001_1_19_H_._HHH_b1_07022_0001_0000500035_0000001_0 (protein)
chain: SSSSSQEVAELIIEAFRLLLRGDEEEVERLLEELKELAEELNDPALRRLVEILEEAIKAASSSSS
B13: il10ra_site1_sap_16_mot_HHH_b1_05860_000000142_0001_1_19_H_._HHH_b1_00472_af2_0001_0000400017_0000001_0_0001 (protein)
chain: SSSSSTAAHEIYELLKEAAELLADGNPEEAEKVLREAEELAEERGSQVMRFNIEMLLRQVSSSSS
B14: il10ra_site1_sap_12_mot_HHH_b1_08411_af2_000000053_0001_1_20_H_._HHH_b2_05711_0001_0000100001_0000001_0_0001 (protein)
chain: SSSSDLEEEIRELLEEIERLLEEGNHEEAMRLILRALRLIFKLGNEELLQILWELVKKLASSSSS
B15: il10ra_site1_sap_18_mot_HHH_b1_08176_000000188_0001_1_20_H_._HHH_b1_07223_af2_0001_0000200007_0000001_0_0001_af2pred_0001 (protein)
chain: SSSSDEEVREQVREIYEELERLLEEGDREKVEKLLHELVEIALKFDDREAAKAAAEITRLLSSSS
B16: il10ra_site1_sap_18_mot_HHH_b2_00092_000000181_0001_22_39_H_._HHH_b2_07320_0001_0000300035_0000001_0_0001 (protein)
chain: SSSSNQEHHELYELSRRVAELAANGNPEEAREVLEELEKLAEELNDQLMEFIVRLLQRLLHSSSS
B17: il10ra_site1_sap_21_mot_HHH_b2_00076_000000055_0001_40_55_H_._9021b0b5b017d02e5ebf3567f867700e_0001_1_0001_0000300015_0000001_0_0001_af2pred_0001 (protein)
chain: SSSSSEEEVERLLEEAKELLERGNPTEAVKALRRVVKLAAELQNPELLKLVRELSRLIVELSSSS
B18: il10ra_site1_sap_12_mot_HHH_b2_07442_000000239_0001_40_54_H_._HHH_b1_00744_0001_0000200013_0000001_0_0001 (protein)
chain: SSSSNEEYKKVKEAIKRASELWEEGNPEEAERLLEEILKEAEERGDWSLAWALRRALELLKSSSS
B19: il10ra_site1_sap_12_mot_HHH_b2_00943_af2_000000149_0001_1_17_H_._HHH_b1_02919_0001_0000100002_0000001_0_0001_af2pred_0001 (protein)
chain: GPEELEEEVERLLREGNLEEALELLARYAARTQDPEVAHRVIEAYAALSQGNPEEAKKLLEEAVK
B20: il10ra_site1_sap_24_mot_HHH_b1_06816_000000239_0001_1_19_H_._HHH_b2_01980_0001_0000400039_0000002_0_0001 (protein)
chain: SSSSSEERREIYELSRELAEAASDGDKERVEELYEEIRELIEEAGSRMLRFVLEHIYRIAKSSSS
B21: il10ra_site1_sap_22_mot_HHH_b1_06837_000000150_0001_20_37_H_._HHH_b1_03672_0001_0000700018_0000001_0_0001_af2pred_0001 (protein)
chain: SSSSSDEVEEEVRELLEEAEHVEDPREVVRLLSEASKIALENNDPELFRLIIKVAAELARSSSSS
B22: il10ra_site1_sap_22_mot_HHH_b2_00441_000000175_0001_1_18_H_._HHH_b2_03099_0001_0000200023_0000001_0_0001 (protein)
chain: SSSSDEEMLKELVRAAIRLARQAKDEETRRALEWAMRALAEINNDPELRELVEELEEELNSSSSS
B23: il10ra_site1_normal_mot_39ab2cb694c8b9c1dc7e65c0d672c93e_0001_000000036_0001_53_65_H_._HHH_b2_06018_0001_0000200027_0000001_0 (protein)
chain: SSSSSDEEELEELLEELQRLVEEGDRERALRLALEILRLAVRLSDEEALQRLWKLVKELASSSSS
B24: il10ra_site1_normal_mot_HHH_b2_06497_000000202_0001_1_20_H_._HHH_b2_06487_0001_0000300036_0000002_0 (protein)
chain: SSSSTEENERVYELIRRVFELIQQGNPEEAEKLLEEAEEIIEEANNELLEFALRAAKRALKSSSS
B25: il10ra_site1_normal_mot_HHH_b1_04877_af2_000000063_0001_41_55_H_._HHH_b2_05502_0001_0000300013_0000001_0_af2pred_0001 (protein)
chain: SSSSDLEEETERILKEVEELLEEGNEEEAIQLLFKLLRLLVRAGDEELIRKVEKLAVKVLGSSSS
B26: il10ra_site1_sap_22_mot_HHH_b1_08697_af2_000000298_0001_1_18_H_._HHH_b1_04234_0001_0000200008_0000002_0_0001 (protein)
chain: SSSSNEAYEISREALELLRRGNEEEAKRLLEELAEELEEKGDFNFLFSVRAALRAVEALRTSSSS
B27: il10ra_site1_sap_17_mot_HHH_eva_0351_af2_000000113_0001_1_19_H_._HHH_b2_05367_af2_0001_0000500028_0000001_0_0001 (protein)
chain: SSSSSSEEEIKERVEELLEEAEHIEDERKAIEVALEALQIAIQGQDPELLQLVWEVLERVSSSSS
B28: il10ra_site1_normal_mot_HHH_b2_00984_000000042_0001_1_20_H_._HHH_b2_07840_0001_0000300031_0000001_0 (protein)
chain: SSSSSSDLEELVEELEEAVREGDTEKAAQIAQEAARLAFRLSDQEALQELWRLIRLVASSSSSSS
B29: il10ra_site1_normal_mot_HHH_b1_01693_000000146_0001_1_17_H_._HHH_b1_04789_af2_0001_0000100007_0000001_0 (protein)
chain: SSSSDEEEEVEELIKELEEAVKEGDEELVAELYVQAARLAQRINNPELLEKVQRLAVLFLHSSSS
B30: il10ra_site1_normal_mot_HHH_b2_02053_af2_000000006_0001_3_19_H_._HHH_b1_08577_0001_0000200012_0000001_0 (protein)
chain: SSSSSDAEELYRLSREALELRANGNPEEAREVLEEAIELAREAGNFVFLFALEQLLRDLSSSSSS
B31: il10ra_site1_sap_21_mot_674797ffa33fc4f31d963a7257083862_0001_000000202_0001_1_12_H_._HHH_b1_06212_af2_0001_0000100003_0000001_0_0001 (protein)
chain: SSSSDEDEKEVRELLEEAEELREEGDPREAAKVLQEAVRFAIRSQNPELLRLVWEVVKRLGSSSS
B32: il10ra_site1_sap_16_mot_HHH_b1_07527_000000076_0001_1_15_H_._HHH_b1_02879_af2_0001_0000200010_0000001_0_0001 (protein)
chain: SSSSDEEEELEELREELRELAKEGDLERFLRVAMEVLHIAFQLGDSEVFHELMELAKKIDSSSSS
B33: il10ra_site1_normal_mot_HHH_b1_01849_000000247_0001_21_38_H_._ems_3hM_1289_0001_0000100002_0000002_0_af2pred_dldesign_0_af2pred (protein)
chain: SFAEEVLKKAEENIKLAKEKKDPKLEAAAKYLLEDAKVAIAKNNEEALAQVKLATEKLEEVLKES
B34: il10ra_site1_sap_15_mot_5d0551e3c4357af680d60aaa850e4cea_0001_1_af2_000000133_0001_18_33_H_._HHH_b2_04636_0001_0000200014_0000001_0_0001 (protein)
chain: SSSSSSSSEVEEEVRRLLEEAEENPEHANEILLEAIRLAFRHKNEELLRAIWRVLHELSSSSSSS
B35: il10ra_site1_sap_20_mot_HHH_b2_03220_af2_000000223_0001_23_40_H_._HHH_b1_02199_af2_0001_0000500031_0000002_0_0001 (protein)
chain: SSSSSDEWYRLVKELIELLSEGDREKAEEVIERIEELAEEEGDKVLKWLVEFLEELVKESSSSSS
B36: il10ra_site1_sap_12_mot_HHH_b1_06788_af2_000000238_0001_19_36_H_._HHH_b2_07005_af2_0001_0000400017_0000001_0_0001_af2pred_0001 (protein)
chain: SSSSSEEIEKLLEELEEAIKRGDEREASHLILRIAKLIDELGDPELFERLLRIAALVTELGSSSS
B37: il10ra_site1_normal_mot_HHH_b1_00999_000000080_0001_41_55_H_._HHH_b2_05235_0001_0000300014_0000001_0 (protein)
chain: SSSSSSDVEELLEEAQELRERGNPEEAAEVLQRAVRHIFELGDKELLQELWELVRRIGSSSSSSS

What follows are binders tested against il10ra, Q13651 (assay: yeast display titration).

Apparent Kd, inactive:
B1 no binding seen
B2 no binding seen
B3 no binding seen
B4 no binding seen
B5 > 1.07 µM
B6 no binding seen
B7 no binding seen
B8 no binding seen
B9 no binding seen
B10 no binding seen
B11 no binding seen
B12 no binding seen
B13 no binding seen
B14 no binding seen
B15 > 1.41 µM
B16 no binding seen
B17 no binding seen
B18 no binding seen
B19 no binding seen
B20 no binding seen
B21 no binding seen
B22 > 0.794 µM
B23 no binding seen
B24 > 0.868 µM
B25 no binding seen
B26 no binding seen
B27 no binding seen
B28 no binding seen
B29 no binding seen
B30 no binding seen
B31 no binding seen
B32 no binding seen
B33 no binding seen
B34 no binding seen
B35 no binding seen
B36 no binding seen
B37 no binding seen

For reference, some entries already given:
Apparent Kd, inactive:
B8 no binding seen
B9 no binding seen
